Reference: the supplement of paper PMC4604168 (melanoma cell lines)
Some of the results follow. Single values are uncertain, as repeats are few or missing.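 The apoptosis fraction was the count of cleaved-PARP antibody-stained nuclei relative to all DNA-stained nuclei, imaged in 1,536-well plates. Screening doses were set so most cells survived, and baseline and induced cleaved-PARP levels vary greatly across cell lines.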

Legend:
Assay in all cases: cleaved PARP positive nuclei fraction relative to DMSO control; melanoma cells; higher = more apoptosis
Details in all cases: library dose: low library concentration; 72 h
501Mel = tested on: 501Mel
A101D = tested on: A101D
A2058 = tested on: A2058
A375 = tested on: A375
C32 = tested on: C32
CBRC008 = tested on: CBRC008 (line from a melanoma biopsy)
CBRC013 = tested on: CBRC013 (line from a melanoma biopsy)
CBRC014 = tested on: CBRC014 (line from a melanoma biopsy)
CBRC016 = tested on: CBRC016 (line from a melanoma biopsy)
CBRC017 = tested on: CBRC017 (line from a melanoma biopsy)
COLO792 = tested on: COLO792
COLO800 = tested on: COLO800
COLO829 = tested on: COLO829
G361 = tested on: G361
IPC-298 = tested on: IPC-298
IST-MEL1 = tested on: IST-MEL1
LB2518-MEL = tested on: LB2518-MEL
LOXIMVI = tested on: LOXIMVI
MEL-HO = tested on: MEL-HO

Structure (SMILES) | cleaved PARP positive nuclei fraction (501Mel) [%] | cleaved PARP positive nuclei fraction (A101D) [%] | cleaved PARP positive nuclei fraction (A2058) [%] | cleaved PARP positive nuclei fraction (A375) [%] | cleaved PARP positive nuclei fraction (C32) [%] | cleaved PARP positive nuclei fraction (CBRC008) [%] | cleaved PARP positive nuclei fraction (CBRC013) [%] | cleaved PARP positive nuclei fraction (CBRC014) [%] | cleaved PARP positive nuclei fraction (CBRC016) [%] | cleaved PARP positive nuclei fraction (CBRC017) [%] | cleaved PARP positive nuclei fraction (COLO792) [%] | cleaved PARP positive nuclei fraction (COLO800) [%] | cleaved PARP positive nuclei fraction (COLO829) [%] | cleaved PARP positive nuclei fraction (G361) [%] | cleaved PARP positive nuclei fraction (IPC-298) [%] | cleaved PARP positive nuclei fraction (IST-MEL1) [%] | cleaved PARP positive nuclei fraction (LB2518-MEL) [%] | cleaved PARP positive nuclei fraction (LOXIMVI) [%] | cleaved PARP positive nuclei fraction (MEL-HO) [%]
Cn1nnc2c(C(N)=O)ncn2c1=O [temozolomide] + CC(C)(C)c1cnc(CSc2cnc(NC(=O)C3CCNCC3)s2)o1 [SNS-032] (first compound 2 µM, partner dose 0.01 µM) | 84.4 | 86.4 | 219 | 104 | 53.1 | 141 | 97.4 | 84.2 | 62.1 | 97.6 | 135 | 176 | 105 | 136 | 48 | 157 | 96.1 | 51.9 | 38.1
CO[C@@H]1[C@H](N(C)C(=O)c2ccccc2)C[C@H]2O[C@]1(C)n1c3ccccc3c3c4c(c5c6ccccc6n2c5c31)C(=O)NC4 [Midostaurin] + NC(=O)Nc1cc(-c2cccc(F)c2)sc1C(=O)N[C@H]1CCCNC1 [AZD7762] (first compound 0.08 µM, partner dose 0.02 µM) | 79.3 | 125 | 132 | 740 | 108 | 68.1 | 117 | 124 | 140 | 84.8 | 171 | 87.6 | 69 | 86.2 | 99.6 | 30.1 | 78.1 | 118 | 226
CC(=O)c1c(C)c2cnc(Nc3ccc(N4CCNCC4)cn3)nc2n(C2CCCC2)c1=O [palbociclib] + Cn1cncc1[C@@](N)(c1ccc(Cl)cc1)c1ccc2c(c1)c(-c1cccc(Cl)c1)cc(=O)n2C [tipifarnib] (first compound 0.04 µM, partner dose 0.01 µM) | 209 | 62.2 | 97.8 | 434 | 92.1 | 48.4 | 95.7 | 98.9 | 158 | 125 | 251 | 17.8 | 174 | 162 | 56.6 | 134 | 70.2 | 231 | 86.5
C[C@]1(c2nc3c(C(N)=O)cccc3[nH]2)CCCN1 [Veliparib] + C=CCn1c(=O)c2cnc(Nc3ccc(N4CCN(C)CC4)cc3)nc2n1-c1cccc(C(C)(C)O)n1 [MK1775] (first compound 1.4 µM, partner dose 0.02 µM) | 263 | 122 | 109 | 349 | 74.2 | 100 | 107 | 90.6 | 45.9 | 90.1 | 48.7 | 20.6 | 80.9 | 89.2 | 47.1 | 34.3 | 29.2 | 382 | 131
COc1cc(Nc2ncc(F)c(Nc3ccc4c(n3)NC(=O)C(C)(C)O4)n2)cc(OC)c1OC [Tamatinib] + OCCn1cc(-c2cnc3nnn(Cc4ccc5ncccc5c4)c3n2)cn1 [PF04217903] (first compound 0.4 µM, partner dose 1 µM) | 90.3 | 110 | 186 | 398 | 49.1 | 188 | 88 | 87.5 | 77.9 | 87.6 | 296 | 93.7 | 211 | 129 | 76.1 | 49.6 | 212 | 114 | 69.7
Cn1c(Nc2ccc(C(F)(F)F)cc2)nc2cc(Oc3ccnc(-c4ncc(C(F)(F)F)[nH]4)c3)ccc21 + NCC(=O)Nc1ccc(-n2nc(C(F)(F)F)cc2-c2ccc3c(ccc4ccccc43)c2)cc1 [OSU03012] (first compound 0.08 µM, partner dose 1 µM) | 227 | 289 | 54.8 | 14000 | 29.1 | 165 | 152 | 84.6 | 399 | 85.2 | 434 | 54.8 | 18.6 | 256 | 339 | 274 | 186 | 147 | 367
CC(C)(C)c1cnc(CSc2cnc(NC(=O)C3CCNCC3)s2)o1 + NC(=O)Nc1cc(-c2cccc(F)c2)sc1C(=O)N[C@H]1CCCNC1 [AZD7762] (first compound 0.01 µM, partner dose 0.02 µM) | 77.2 | 89.7 | 97.5 | 525 | 53.2 | 229 | 147 | 107 | 178 | 99.7 | 136 | 53.5 | 78.6 | 40.7 | 91.5 | 101 | 196 | 50.6 | 84.6
Cc1cc(N2CCOCC2)cc2[nH]c(-c3c(NC[C@@H](O)c4cccc(Cl)c4)cc[nH]c3=O)nc12 + O=C(Nc1cccc(Cl)c1)Nc1ncc(CCNc2ncnc3ccsc23)s1 [SNS314] (first compound 0.2 µM, partner dose 0.0008 µM) | 90.4 | 74.1 | 92.8 | 134 | 134 | 1000 | 185 | 93.1 | 34.7 | 106 | 122 | 157 | 100 | 36.6 | 105 | 99.6 | 68.2 | 23.4 | 27.8
Cn1nnc2c(C(N)=O)ncn2c1=O [temozolomide] + CN(NC(=O)CC(=O)NN(C)C(=S)c1ccccc1)C(=S)c1ccccc1 [STA4783] (first compound 2 µM, partner dose 0.006 µM) | 382 | 216 | 300 | 5980 | 240 | 4430 | 118 | 469 | 226 | 836 | 334 | 162 | 132 | 4960 | 116 | 65.3 | 271 | 72 | 72.2
CC(C)(C)c1cnc(CSc2cnc(NC(=O)C3CCNCC3)s2)o1 + OCCn1cc(-c2cnc3nnn(Cc4ccc5ncccc5c4)c3n2)cn1 [PF04217903] (first compound 0.01 µM, partner dose 1 µM) | 89 | 73.2 | 65.2 | 87.5 | 219 | 155 | 168 | 79 | 17.4 | 83.1 | 108 | 194 | 37.7 | 17.7 | 44 | 71.2 | 88.8 | 114 | 68.8
Cc1cc(N2CCOCC2)cc2[nH]c(-c3c(NC[C@@H](O)c4cccc(Cl)c4)cc[nH]c3=O)nc12 + COc1cc2c(Oc3ccc4[nH]c(C)cc4c3F)ncnc2cc1OCCCN1CCCC1 [cediranib] (first compound 0.2 µM, partner dose 0.4 µM) | 347 | 88.7 | 111 | 244 | 141 | 153 | 146 | 87.4 | 77.2 | 70 | 151 | 174 | 77.1 | 217 | 203 | 92.4 | 94.1 | 253 | 65.3
C=CCNC1=C2C[C@@H](C)C[C@H](OC)[C@H](O)[C@@H](C)/C=C(\C)[C@H](OC(N)=O)[C@@H](OC)/C=C\C=C(/C)C(=O)NC(=CC1=O)C2=O [Tanespimycin] + NC(=O)Nc1cc(-c2cccc(F)c2)sc1C(=O)N[C@H]1CCCNC1 [AZD7762] (first compound 0.002 µM, partner dose 0.02 µM) | 149 | 184 | 72.3 | 210 | 257 | 202 | 122 | 108 | 119 | 113 | 187 | 65.7 | 101 | 103 | 166 | 75.5 | 76.3 | 51.2 | 87
Cc1ccc(NC(=O)c2cccc(N(C)C)c2)cc1NC(=O)c1ccc(O)cc1 + Cc1cc(N2CCOCC2)cc2[nH]c(-c3c(NC[C@@H](O)c4cccc(Cl)c4)cc[nH]c3=O)nc12 [BMS536924] (first compound 2 µM, partner dose 0.2 µM) | 56.7 | 29.2 | 96.1 | 38.4 | 131 | 212 | 96.9 | 103 | 44.8 | 126 | 153 | 181 | 86.1 | 75.7 | 55.9 | 112 | 594 | 54.2 | 71.1
C#Cc1cccc(Nc2ncnc3cc(OCCOC)c(OCCOC)cc23)c1 [erlotinib] + NCC(=O)Nc1ccc(-n2nc(C(F)(F)F)cc2-c2ccc3c(ccc4ccccc43)c2)cc1 [OSU03012] (first compound 0.8 µM, partner dose 1 µM) | 192 | 102 | 89 | 3640 | 44.4 | 155 | 141 | 104 | 108 | 199 | 58.3 | 144 | 58.2 | 83.4 | 108 | 212 | 152 | 15.8 | 139
Cc1nc(Nc2ncc(C(=O)Nc3c(C)cccc3Cl)s2)cc(N2CCN(CCO)CC2)n1 [dasatanib] + O=C(O)c1ccc(-c2c[nH]c3ncc(-c4ccccc4)cc23)cc1C1CCCC1 [GSK650394] (first compound 0.004 µM, partner dose 0.16 µM) | 94.7 | 123 | 160 | 120 | 222 | 416 | 112 | 157 | 280 | 116 | 102 | 55 | 143 | 92.8 | 89.6 | 62.4 | 267 | 153 | 77.2
CC1(C)NC(=O)N(c2ccc([N+](=O)[O-])c(C(F)(F)F)c2)C1=O [nilutamide] + Cn1cncc1[C@@](N)(c1ccc(Cl)cc1)c1ccc2c(c1)c(-c1cccc(Cl)c1)cc(=O)n2C [tipifarnib] (first compound 1 µM, partner dose 0.01 µM) | 385 | 209 | 120 | 205 | 42.5 | 176 | 98.3 | 94 | 51.3 | 110 | 138 | 43 | 99.4 | 103 | 105 | 84.2 | 215 | 49.6 | 137
OCc1c[nH]c2ccccc12 [Indole-3-carbinol] + CC1(C)NC(=O)N(c2ccc([N+](=O)[O-])c(C(F)(F)F)c2)C1=O [nilutamide] (first compound 0.8 µM, partner dose 1 µM) | 270 | 79.9 | 87.2 | 34.7 | 86.5 | 86.9 | 176 | 85.6 | 217 | 68.7 | 89 | 96 | 190 | 91.5 | 93 | 149 | 97.7 | 60.8 | 184

Full records, quoted from the list. Order of values: cleaved PARP positive nuclei fraction (501Mel) [%]	cleaved PARP positive nuclei fraction (A101D) [%]	cleaved PARP positive nuclei fraction (A2058) [%]	cleaved PARP positive nuclei fraction (A375) [%]	cleaved PARP positive nuclei fraction (C32) [%]	cleaved PARP positive nuclei fraction (CBRC008) [%]	cleaved PARP positive nuclei fraction (CBRC013) [%]	cleaved PARP positive nuclei fraction (CBRC014) [%]	cleaved PARP positive nuclei fraction (CBRC016) [%]	cleaved PARP positive nuclei fraction (CBRC017) [%]	cleaved PARP positive nuclei fraction (COLO792) [%]	cleaved PARP positive nuclei fraction (COLO800) [%]	cleaved PARP positive nuclei fraction (COLO829) [%]	cleaved PARP positive nuclei fraction (G361) [%]	cleaved PARP positive nuclei fraction (IPC-298) [%]	cleaved PARP positive nuclei fraction (IST-MEL1) [%]	cleaved PARP positive nuclei fraction (LB2518-MEL) [%]	cleaved PARP positive nuclei fraction (LOXIMVI) [%]	cleaved PARP positive nuclei fraction (MEL-HO) [%]
C=CCNC1=C2C[C@@H](C)C[C@H](OC)[C@H](O)[C@@H](C)/C=C(\C)[C@H](OC(N)=O)[C@@H](OC)/C=C\C=C(/C)C(=O)NC(=CC1=O)C2=O [Tanespimycin] + NC(=O)Nc1cc(-c2cccc(F)c2)sc1C(=O)N[C@H]1CCCNC1 [AZD7762] (first compound 0.002 µM, partner dose 0.02 µM) in the list: 149	184	72.3	210	257	202	122	108	119	113	187	65.7	101	103	166	75.5	76.3	51.2	87
C[C@]1(c2nc3c(C(N)=O)cccc3[nH]2)CCCN1 [Veliparib] + C=CCn1c(=O)c2cnc(Nc3ccc(N4CCN(C)CC4)cc3)nc2n1-c1cccc(C(C)(C)O)n1 [MK1775] (first compound 1.4 µM, partner dose 0.02 µM) in the list: 263	122	109	349	74.2	100	107	90.6	45.9	90.1	48.7	20.6	80.9	89.2	47.1	34.3	29.2	382	131
